In the assay the target is FLAG-tagged OVOL2 stably expressed in EL4 T cells (mouse) (UniProt Q8CIV7). Description: affinity purification with mass spectrometry; anti-FLAG M2 agarose IP (4 h, 4 °C) from EL4 T cells stably expressing FLAG-tagged OVOL2, with (20 or 100 unit) or without DNase I; washed five times in Nonidet P-40 lysis buffer; eluted with 3xFlag peptide; LC-MS/MS; three independent analyses; empty vector control.

No constants are given. Whether binding was seen depends on the method and setting. Binding seen in cells or lysates may run through a third protein. These calls come from enrichment with a bait or labelling near it, and not all partners need be listed.

B1: high mobility group 20 A (HMG20A), endogenous in EL4 T cells (protein, UniProt Q9DC33 1-346)
chain: MESLMASSTLPPLFADEDGSKESNDLATSGLTHPEGPYGSAATSTTNPEFVEDLSQGQLLQSEASNAVEGNEQRPEDEQRSKRGGWSKGRKRKKPLRDSNAPKSPLTGYVRFMNERREQLRAKRPEVPFPEITRMLGNEWSKLPPEEKQRYLDEADRDKERYMKELEQYQKTEAYKVFSRKTQDRQKGKSHRQDAARQATHDHEKETEVKERSVFDIPIFTEEFLNHSKAREAELRQLRKSNMEFEERNAALQKHVESMRTAVEKLEVDVIQERSRNTVLQQHLETLRQMLTSSFASMPLPGSGEIPTVDTIDSYMNRLHSIILANPQDNENFIATVREVVNRLDR
As for B1, the binding result was “binds”.

B2: genetic suppressor element 1 (GSE1), endogenous in EL4 T cells (protein, UniProt Q3U3C9 1-1213)
chain: MKGMSHEPKSPSIGMLSTATRTTATVNPLTPSPLNGALVPTGSPATSSTLSAQAAPSSSFAAALRKLAKQAEEPRGSSLSSESSPVSSPATNHSSPASTPKRVPMGPIIVPPGGHSVPSTPPVVTIAPTKTVNGVWRSESRQDSGSRGSSSGRERLLVEPPLAQEKAAGPAIPSHLLSTPYPFGLSPGSVVQDSRFQPLNLQRPVHHVVPPSTVTEDYLRSFRPYHTAEDLRMSSLPPLGLDPATAAAYYHPSYLAPHPFPHPAFRMDDSYCLSALRSPFYPIPTPGSLPPLHPSAMHLHLSGVRYPPELSHSSLAALHSERMSSLSAERLQMDEELRREREREREREREADREREKEREREQREKEREKELEREREKERERELERQREQRAREKELLAAKALEPTTFLPVAELHGLRGHSTEERPKPSEQLTPTRAEKLKDVGLQAPKPVQHPLHPVPAPHHTVPSLISSHGIFSLPGSSATTALLIQRTNEEEKWLARQRRLRQEKEDRQSQVSEFRQQVLEQHLDLGRPLVPTEAEHRPESTRPGTNRHEQGSREPPQHFGGPPPLISPKPQQHTVPTALWNPVSLMDNALETRRAESHSLHSHPTAFEPSRQAAVPLVKVERVYCSEKAEEPRKREATPLDKYQPPPPPPPPREAGSLEPQTFPHGPGPFLTELEKSTQTILGQQRPSLSQATSFGELSGPLKPGSPYCHPTARGPDPAYIYDEFLQQRRKLVSKLDLEERRRREAQEKGYYYDLDDSYDESDEEEVRAHLRCVAEQPPLKLDTSSEKLEFLQLFGLTTQQQKEELVAQKRRKRRRMLRERSPSPPAVQCKRQTPSPRLALSTRYSPDEMNNSPNFEEKRKFLTFFNLTHISAEKRKDKERLVEMLRAMKQRALSAADSVTNSSRDSPPVSLSEPATQPAPLETDQPVGVPASLSDVPKTTETGRLEQLRPQELLRVQEPAPPSGEKARLSEAPGGKKSLSMLHYLRGAAPKDIPVPLSHSINGKSKPWEPFVAEEFAHQFHESVLQSTQKALQKHKGNSALLSAEQSHKVDTAIHYNIPELQSSSRVPLPQHNGQQEPPMGRKGPPMQEADQDSEEDSEEDSEEEAEEAPRRQWQGIEAIFEAYQEHIEEQNLERQVLQTQCRRLEAQNYSLSLTAEQLSHSMAELRSQKQKMVSERERLQAELDHLRKCLALPTMHWPRGYFKGYPR
Consider B2, for which the binding entry is “binds”.

(Values after paper PMC10682436.)
